Assay results taken from article PMC8575914.

Each substance was assayed against T1, FLAG-MORC2a (mouse) (UniProt Q69ZX6) (assay: co-IP; anti-FLAG affinity gel, 6 h, on precleared lysates of cells ectopically expressing the tagged proteins; rinsed four times in lysis buffer (50 mM HEPES pH 8.0, 150 mM NaCl, 0.5% Triton-X 100); western blot).
T1 sequence: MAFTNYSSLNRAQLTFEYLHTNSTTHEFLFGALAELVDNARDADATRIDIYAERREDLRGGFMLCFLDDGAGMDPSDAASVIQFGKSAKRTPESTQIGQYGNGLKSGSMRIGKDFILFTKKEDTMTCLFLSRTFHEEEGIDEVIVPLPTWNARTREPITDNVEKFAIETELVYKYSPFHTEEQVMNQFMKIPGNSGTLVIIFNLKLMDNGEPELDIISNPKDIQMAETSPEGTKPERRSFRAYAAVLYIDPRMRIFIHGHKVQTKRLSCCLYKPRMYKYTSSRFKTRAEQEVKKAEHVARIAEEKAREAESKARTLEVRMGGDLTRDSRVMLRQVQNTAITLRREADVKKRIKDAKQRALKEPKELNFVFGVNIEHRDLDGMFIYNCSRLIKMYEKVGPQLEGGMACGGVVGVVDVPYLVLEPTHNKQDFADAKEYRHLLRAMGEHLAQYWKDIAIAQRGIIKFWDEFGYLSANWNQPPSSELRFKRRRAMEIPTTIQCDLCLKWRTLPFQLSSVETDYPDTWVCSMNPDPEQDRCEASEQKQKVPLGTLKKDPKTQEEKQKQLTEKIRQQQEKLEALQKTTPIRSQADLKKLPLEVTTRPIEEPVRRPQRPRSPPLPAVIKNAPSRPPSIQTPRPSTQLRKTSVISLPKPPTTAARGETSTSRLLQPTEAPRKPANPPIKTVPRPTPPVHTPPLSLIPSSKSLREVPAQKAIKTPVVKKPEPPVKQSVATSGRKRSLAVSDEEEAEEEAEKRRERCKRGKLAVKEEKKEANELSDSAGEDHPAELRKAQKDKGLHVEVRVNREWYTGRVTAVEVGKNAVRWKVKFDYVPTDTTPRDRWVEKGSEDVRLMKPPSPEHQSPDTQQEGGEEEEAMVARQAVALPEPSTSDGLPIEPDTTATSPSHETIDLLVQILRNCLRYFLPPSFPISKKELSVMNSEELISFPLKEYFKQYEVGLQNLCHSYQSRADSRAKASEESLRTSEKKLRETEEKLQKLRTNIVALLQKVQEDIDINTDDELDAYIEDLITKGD
With GFP-LIPIN2 the binding was “binds”.
With GFP-LIPIN3 the binding was “binds”.
For GFP-LIPIN1, the binding was “binds”.

These are yes or no findings as the source states them, for the method shown. In cells and extracts the contact can be indirect. A result given as binding can be weak or reduced; the word gives no strength. Tags and fused reporters may be left off the sequences shown.
